Laboratory results published in patent publication US6558918.

Columns and labels:
[1] = molecular target: Cdc2-AF/CyclinB1 complex, P06493
[2] = molecular target: Cdk2/cyclin A complex, P24941
[3] = molecular target: Cdk2/cyclin E complex, P24941
[4] = molecular target: Cdk4/cyclin D1 complex, P11802
[5] = molecular target: kinase-deficient Cdc2 mutant (K-) complexed with cyclin B1, P06493
[6] = molecular target: wild-type Cdc2/cyclin B1 complex, P06493

B1: truncated human Wee1 with N-terminal Glu-Glu tag, expressed in Sf9 cells (protein)
chain: MEYMPMEEVPGLNSAWSMDTEKSGKREFDVRQTPQVNINPFTPDSLLLHSSGQCRRRKRTYWNDSCGEDMEASDYELEDETRPAKRITITESNMKSRYTTEFHELEKIGSGEFGSVFKCVKRLDGCIYAIKRSKKPLAGSVDEQNALREVYAHAVLGQHSHVVRYFSAWAEDDHMLIQNEYCNGGSLADAISENYRIMSYFKEAELKDLLLQVGRGLRYIHSMSLVHMDIKPSNIFISRTSIPNAASEEGDEDDWASNKVMFKIGDLGHVTRISSPQVEEGDSRFLANEVLQENYTHLPKADIFALALTVVCAAGAEPLPRNGDQWHEIRQGRLPRIPQVLSQEFTELLKVMIHPDPERRPSAMALVKHSVLLSASRKSAEQLRIELNAEKFKNSLLQKELKKAQMAKAAAEERALFTDRMATRSTTQSNRTSRLIGKKMNRSVSLTIY
- 32P-labeling in a kinase reaction with affinity purified proteins, SDS-PAGE [1]: the Cdc2-AF mutant was not phosphorylated by Cell Growth Regulatory Protein or Wee1
- 32P-labeling in a kinase reaction with purified proteins [2]: Wee1 readily phosphorylated Cdk2 that was complexed with either cyclin A and cyclin E
- 32P-labeling in a kinase reaction with purified proteins [3]: Wee1 readily phosphorylated Cdk2 that was complexed with either cyclin A and cyclin E
- 32P-labeling in a kinase reaction with purified proteins [4]: neither Cell Growth Regulatory Protein nor Wee1 phosphorylated the Cdk4 subunit
- 32P-labeling in a kinase reaction with affinity purified proteins, SDS-PAGE [5]: both purified Cell Growth Regulatory Protein and Wee1 kinases were capable of phosphorylating wild-type Cdc2 as well as a kinase-deficient Cdc2 mutant (K-), each of which was complexed with cyclin B1
- 32P-labeling in a kinase reaction with monomeric Cdc2 as substrate (monomeric Cdc2, P06493): it was capable of 32P-labeling monomeric Cdc2
- 32P-labeling in a kinase reaction with affinity purified proteins, SDS-PAGE [6]: both purified Cell Growth Regulatory Protein and Wee1 kinases were capable of phosphorylating wild-type Cdc2 as well as a kinase-deficient Cdc2 mutant (K-), each of which was complexed with cyclin B1
- 32P-labeling in a kinase reaction with the Cdc2/cyclin B1 complex reconstituted from monomers [6]: this phosphorylation was enhanced when the cyclin-bound form was reconstituted
